Values from PubChem BioAssay AID1259308 (NCATS, 2017).
The whole screen tested about 59,000 reagents; below is a random part of them. About 1,510 of all reagents (2.6%) were called active. 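Calls use total luciferase alone and ignore viability, so some active siRNAs may act by altering cell number.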 The numbers tell different reagents against one gene apart.

- Aim: 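Genes whose loss raises luciferase production in HEK293 cells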 (primary screen)
- Cells: human HEK293 embryonic kidney cells stably expressing firefly luciferase (HEK-CMV-Luc2-Hygro)
- Reagent: single siRNA against human genes, 0.8 pmol siRNA per well
- Duration: 72 h
- Read-out: 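Luciferase light (ONE-Glo) measured on one replicate plate set and viability (CellTiter-Glo) on the other, scaled to a negative control siRNA, with robust z-scores and luciferase per cell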
- Direction: total luciferase, z-score and total luciferase, % of control: higher = more reporter protein produced; luciferase per cell, z-score: higher = more reporter output per viable cell; viable cells, % of control: higher = more viable cells
- Active means: 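An siRNA counts as active if its total luciferase robust z-score exceeds 3; genes with two or more such siRNAs out of three were retested with fresh siRNAs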
- Calls: active = raised luciferase; inactive = no rise

no.	Target gene	reagent no.	total luciferase, z-score	total luciferase, % of control	luciferase per cell, z-score	viable cells, % of control	Outcome
1	LAMC3	1	1.86	119	0.835	107	inactive
2	LAMC3	2	-1.17	58.6	-0.541	75.5	inactive
3	LAMC3	3	1.63	114	1.34	89.9	inactive
4	OOSP2	1	-0.33	75.3	-0.296	91	inactive
5	OOSP2	2	0.27	87.3	0.344	89.1	inactive
6	OOSP2	3	0.591	93.6	-0.121	108	inactive
7	PRP4K	1	-0.5	71.9	-0.254	86	inactive
8	PRP4K	2	1.83	118	0.898	104	inactive
9	PRP4K	3	1.48	111	1.3	88.3	inactive
10	PRELID3A	1	1.05	103	1.43	78.8	inactive
11	PRELID3A	2	-0.796	66.1	-0.427	82.6	inactive
12	PRELID3A	3	1.42	110	1.34	86.5	inactive
13	MITD1	1	3.05	143	2.12	91.1	active
14	MITD1	2	-0.0553	80.8	-0.464	102	inactive
15	MITD1	3	0.516	92.1	0.155	98.8	inactive
16	CYSTM1	1	-0.714	67.7	-0.642	89.6	inactive
17	CYSTM1	2	0.528	92.4	0.00621	103	inactive
18	CYSTM1	3	0.231	86.5	-0.252	103	inactive
19	ZFYVE16	1	1.38	109	0.419	109	inactive
20	ZFYVE16	2	-0.369	74.6	0.486	73.3	inactive
21	ZFYVE16	3	1.62	114	1.39	88.5	inactive
22	TBC1D13	1	0.205	86	-0.188	101	inactive
23	TBC1D13	2	-0.496	72	-0.712	97.1	inactive
24	TBC1D13	3	2.31	128	1.44	97.8	inactive
25	GAD1	1	0.69	95.6	0.14	103	inactive
26	GAD1	2	-0.126	79.4	0.601	75.7	inactive
27	GAD1	3	-0.226	77.4	-0.92	110	inactive
28	ASIC3	1	0.0239	82.4	-0.211	97.3	inactive
29	ASIC3	2	2.73	136	1.85	93.4	inactive
30	ASIC3	3	-0.244	77	-0.743	105	inactive
31	P2RX3	1	-0.708	67.8	-0.193	79.7	inactive
32	P2RX3	2	0.0639	83.2	-0.605	109	inactive
33	P2RX3	3	1.02	102	0.0623	112	inactive
34	PLAAT2	1	0.521	92.3	-0.107	106	inactive
35	PLAAT2	2	-0.44	73.1	-0.693	98.1	inactive
36	PLAAT2	3	-0.29	76.1	-0.681	102	inactive
37	EZHIP	1	2.35	129	1.44	98.5	inactive
38	EZHIP	2	1.84	118	1.59	87.1	inactive
39	EZHIP	3	1.83	118	1.23	95.7	inactive
40	NUCB1	1	0.0425	82.7	0.207	87.5	inactive
41	NUCB1	2	0.832	98.4	0.579	94.4	inactive
42	NUCB1	3	-1.06	60.8	-1.08	90.2	inactive
43	SMIM14	1	2.31	128	1.62	93.1	inactive
44	SMIM14	2	-0.176	78.4	-0.755	107	inactive
45	SMIM14	3	-1.49	52.2	-0.419	65.1	inactive
46	ALS2CL	1	-0.276	76.4	0.0702	83.8	inactive
47	ALS2CL	2	-0.356	74.8	-0.384	92.5	inactive
48	ALS2CL	3	0.064	83.2	-0.464	105	inactive
49	VPS29	1	-0.288	76.2	-0.123	87.9	inactive
50	VPS29	2	-1.03	61.4	-0.843	85.7	inactive
51	VPS29	3	-0.84	65.2	0.537	63.2	inactive
52	LOC728667	1	-0.285	76.2	-0.208	90	inactive
53	LOC728667	2	0.349	88.8	0.544	86	inactive
54	LOC728667	3	0.455	90.9	0.487	89.4	inactive
55	ZNF618	1	-0.53	71.3	0.406	71.6	inactive
56	ZNF618	2	1.37	109	0.815	98.4	inactive
57	ZNF618	3	0.315	88.2	-0.293	106	inactive
